Laboratory results from publication PMC7046683 (Frontiers in Oncology, 2020).

Columns and labels:
[1] = three i.p. injections of morphine 10 mg/kg at 0, 1 and 2 h; mean ± SEM
mouse liver microsomes = experiment: 4OH-tamoxifen glucuronidation assay in liver microsomes, with or without morphine; type: in vitro ADME; conditions: morphine 500 μM vs absence of morphine

## CN1CC[C@]23c4c5ccc(O)c4O[C@H]2[C@@H](O)C=C[C@H]3[C@H]1C5 [morphine]
[1]
  Highest concentration in the blood: 1,599 ± 336 pmol/ml
Mouse liver microsomes
  Change of Km for 4OH-tamoxifen-glucuronide production caused by morphine: +45%
